{"source": "PubChem BioAssay AID1259254 (NCATS, 2017)", "test": "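Finding genes that stop cells copying their DNA twice in one cycle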 (primary screen)", "cells": "human HCT116 colorectal cancer cells", "reagents": "single siRNA against human genes", "time to read-out": "3 days", "measurement": "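Imaged Hoechst DNA stain sorts each cell into a cycle phase by DNA amount; per plate, G2 fraction set to 0% for non-targeting and 100% for GMNN siRNA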", "scale": "G2 robust z-score: higher = more G2 cells, more excess DNA replication", "active means": "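An siRNA counts as active if its G2 robust z-score lies at least 5 MADs above the screen median; here such calls match roughly 38% of GMNN control or more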", "note": "The whole screen tested about 59,000 reagents; below is a random part of them. About 1,550 of them (2.6%) count as active. 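G2 share is only a proxy for re-replication; each gene was hit by three separate siRNAs, and active genes were retested.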 The numbers tell different reagents against one gene apart. Further read-outs or replicates are left out here. Not stated in the record: the amount of reagent."}
{"Gene": "MYO19", "reagent no.": 1, "G2 robust z-score": -0.565, "activity call": "inactive"}
{"Gene": "MYO19", "reagent no.": 2, "G2 robust z-score": 15.5, "activity call": "active"}
{"Gene": "MYO19", "reagent no.": 3, "G2 robust z-score": -0.898, "activity call": "inactive"}
{"Gene": "MRPL34", "reagent no.": 1, "G2 robust z-score": 0.597, "activity call": "inactive"}
{"Gene": "MRPL34", "reagent no.": 2, "G2 robust z-score": 1.42, "activity call": "inactive"}
{"Gene": "MRPL34", "reagent no.": 3, "G2 robust z-score": -0.507, "activity call": "inactive"}
{"Gene": "DET1", "reagent no.": 1, "G2 robust z-score": 1.36, "activity call": "inactive"}
{"Gene": "DET1", "reagent no.": 2, "G2 robust z-score": 0.0413, "activity call": "inactive"}
{"Gene": "DET1", "reagent no.": 3, "G2 robust z-score": -0.675, "activity call": "inactive"}
{"Gene": "HSD3B1", "reagent no.": 1, "G2 robust z-score": -0.186, "activity call": "inactive"}
{"Gene": "HSD3B1", "reagent no.": 2, "G2 robust z-score": 1.96, "activity call": "inactive"}
{"Gene": "HSD3B1", "reagent no.": 3, "G2 robust z-score": 2.58, "activity call": "inactive"}

An excerpt of the results above, for reference:
{"Gene": "MYO19", "reagent no.": 1, "G2 robust z-score": -0.565, "activity call": "inactive"}
{"Gene": "MYO19", "reagent no.": 2, "G2 robust z-score": 15.5, "activity call": "active"}

Further entries follow.
{"Gene": "ST18", "reagent no.": 1, "G2 robust z-score": 0.304, "activity call": "inactive"}
{"Gene": "ST18", "reagent no.": 2, "G2 robust z-score": -0.82, "activity call": "inactive"}
{"Gene": "ST18", "reagent no.": 3, "G2 robust z-score": -0.986, "activity call": "inactive"}
{"Gene": "SCN7A", "reagent no.": 1, "G2 robust z-score": -1.26, "activity call": "inactive"}
{"Gene": "SCN7A", "reagent no.": 2, "G2 robust z-score": 0.912, "activity call": "inactive"}
{"Gene": "SCN7A", "reagent no.": 3, "G2 robust z-score": 3.33, "activity call": "inactive"}
{"Gene": "KLRB1", "reagent no.": 1, "G2 robust z-score": -1.07, "activity call": "inactive"}
{"Gene": "KLRB1", "reagent no.": 2, "G2 robust z-score": -0.532, "activity call": "inactive"}
{"Gene": "KLRB1", "reagent no.": 3, "G2 robust z-score": -0.12, "activity call": "inactive"}
{"Gene": "PKP4", "reagent no.": 1, "G2 robust z-score": -1.12, "activity call": "inactive"}
{"Gene": "PKP4", "reagent no.": 2, "G2 robust z-score": 1.56, "activity call": "inactive"}
{"Gene": "PKP4", "reagent no.": 3, "G2 robust z-score": -0.473, "activity call": "inactive"}
